Data published in paper doi:10.1101/2021.05.10.443506.
No constants are given. Whether binding was seen depends on the method and setting. In cells and extracts the contact can be indirect. Some entries that bind do so weakly or less than the wild type.

Protein sequences, listed by entry. Tags and fused reporters are not part of them.
UniProt P12270: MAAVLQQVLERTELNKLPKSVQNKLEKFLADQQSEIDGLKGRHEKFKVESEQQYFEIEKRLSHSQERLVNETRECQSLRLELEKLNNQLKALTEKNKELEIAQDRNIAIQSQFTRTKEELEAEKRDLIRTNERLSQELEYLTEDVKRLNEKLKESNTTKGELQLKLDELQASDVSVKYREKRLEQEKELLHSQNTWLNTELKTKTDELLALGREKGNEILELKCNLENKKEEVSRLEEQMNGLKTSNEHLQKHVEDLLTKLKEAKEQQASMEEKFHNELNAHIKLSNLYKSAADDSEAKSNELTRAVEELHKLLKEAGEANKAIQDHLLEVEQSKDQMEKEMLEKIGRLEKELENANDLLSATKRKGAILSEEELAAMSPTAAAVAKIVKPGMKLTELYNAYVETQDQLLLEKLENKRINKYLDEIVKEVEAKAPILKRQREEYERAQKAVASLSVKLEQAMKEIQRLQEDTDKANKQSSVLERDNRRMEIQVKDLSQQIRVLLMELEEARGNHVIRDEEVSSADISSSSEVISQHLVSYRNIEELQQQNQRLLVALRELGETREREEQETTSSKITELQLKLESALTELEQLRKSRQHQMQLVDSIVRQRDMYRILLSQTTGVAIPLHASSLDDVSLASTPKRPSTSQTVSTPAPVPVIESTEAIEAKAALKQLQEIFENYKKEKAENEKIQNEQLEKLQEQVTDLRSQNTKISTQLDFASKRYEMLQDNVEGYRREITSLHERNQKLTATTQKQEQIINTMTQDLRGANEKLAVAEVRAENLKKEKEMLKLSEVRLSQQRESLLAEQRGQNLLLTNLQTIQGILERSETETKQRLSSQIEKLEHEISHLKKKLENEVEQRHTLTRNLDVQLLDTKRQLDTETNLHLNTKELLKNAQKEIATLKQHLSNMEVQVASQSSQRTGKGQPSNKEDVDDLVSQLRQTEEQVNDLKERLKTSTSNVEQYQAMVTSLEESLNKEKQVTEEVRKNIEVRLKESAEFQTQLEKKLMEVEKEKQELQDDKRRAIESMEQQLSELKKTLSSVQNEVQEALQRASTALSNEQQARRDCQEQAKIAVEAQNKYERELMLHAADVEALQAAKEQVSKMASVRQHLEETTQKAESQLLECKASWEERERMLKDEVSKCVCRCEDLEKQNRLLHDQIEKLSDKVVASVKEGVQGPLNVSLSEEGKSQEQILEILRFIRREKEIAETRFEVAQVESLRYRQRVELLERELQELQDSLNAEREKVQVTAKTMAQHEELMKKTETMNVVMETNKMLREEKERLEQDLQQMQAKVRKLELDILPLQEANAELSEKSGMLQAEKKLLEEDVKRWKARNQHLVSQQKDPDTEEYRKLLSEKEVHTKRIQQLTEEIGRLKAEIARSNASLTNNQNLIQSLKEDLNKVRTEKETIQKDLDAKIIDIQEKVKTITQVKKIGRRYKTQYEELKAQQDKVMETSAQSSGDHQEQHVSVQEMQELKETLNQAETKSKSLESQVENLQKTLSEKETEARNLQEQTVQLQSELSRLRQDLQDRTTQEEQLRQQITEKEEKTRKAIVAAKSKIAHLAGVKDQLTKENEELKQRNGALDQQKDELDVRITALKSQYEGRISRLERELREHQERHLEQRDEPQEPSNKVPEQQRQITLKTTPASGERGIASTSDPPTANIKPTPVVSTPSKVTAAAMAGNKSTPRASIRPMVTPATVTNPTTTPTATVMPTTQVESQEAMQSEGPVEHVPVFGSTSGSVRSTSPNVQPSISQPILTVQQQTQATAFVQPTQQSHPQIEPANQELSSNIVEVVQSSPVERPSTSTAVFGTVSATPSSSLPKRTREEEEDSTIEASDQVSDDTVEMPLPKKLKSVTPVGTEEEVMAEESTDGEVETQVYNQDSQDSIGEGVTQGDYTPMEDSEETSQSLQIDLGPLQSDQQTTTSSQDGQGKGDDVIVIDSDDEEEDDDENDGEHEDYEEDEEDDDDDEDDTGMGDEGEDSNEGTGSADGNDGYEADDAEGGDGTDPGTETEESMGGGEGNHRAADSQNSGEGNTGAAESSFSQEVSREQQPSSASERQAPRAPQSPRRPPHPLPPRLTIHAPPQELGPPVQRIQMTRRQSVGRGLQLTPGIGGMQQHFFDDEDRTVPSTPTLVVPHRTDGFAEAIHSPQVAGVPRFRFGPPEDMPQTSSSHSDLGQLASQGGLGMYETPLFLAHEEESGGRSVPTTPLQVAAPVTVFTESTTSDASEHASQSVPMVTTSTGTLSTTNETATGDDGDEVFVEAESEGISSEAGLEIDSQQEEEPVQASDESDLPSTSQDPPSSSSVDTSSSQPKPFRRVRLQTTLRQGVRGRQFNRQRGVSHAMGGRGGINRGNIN
UniProt Q9UQE7: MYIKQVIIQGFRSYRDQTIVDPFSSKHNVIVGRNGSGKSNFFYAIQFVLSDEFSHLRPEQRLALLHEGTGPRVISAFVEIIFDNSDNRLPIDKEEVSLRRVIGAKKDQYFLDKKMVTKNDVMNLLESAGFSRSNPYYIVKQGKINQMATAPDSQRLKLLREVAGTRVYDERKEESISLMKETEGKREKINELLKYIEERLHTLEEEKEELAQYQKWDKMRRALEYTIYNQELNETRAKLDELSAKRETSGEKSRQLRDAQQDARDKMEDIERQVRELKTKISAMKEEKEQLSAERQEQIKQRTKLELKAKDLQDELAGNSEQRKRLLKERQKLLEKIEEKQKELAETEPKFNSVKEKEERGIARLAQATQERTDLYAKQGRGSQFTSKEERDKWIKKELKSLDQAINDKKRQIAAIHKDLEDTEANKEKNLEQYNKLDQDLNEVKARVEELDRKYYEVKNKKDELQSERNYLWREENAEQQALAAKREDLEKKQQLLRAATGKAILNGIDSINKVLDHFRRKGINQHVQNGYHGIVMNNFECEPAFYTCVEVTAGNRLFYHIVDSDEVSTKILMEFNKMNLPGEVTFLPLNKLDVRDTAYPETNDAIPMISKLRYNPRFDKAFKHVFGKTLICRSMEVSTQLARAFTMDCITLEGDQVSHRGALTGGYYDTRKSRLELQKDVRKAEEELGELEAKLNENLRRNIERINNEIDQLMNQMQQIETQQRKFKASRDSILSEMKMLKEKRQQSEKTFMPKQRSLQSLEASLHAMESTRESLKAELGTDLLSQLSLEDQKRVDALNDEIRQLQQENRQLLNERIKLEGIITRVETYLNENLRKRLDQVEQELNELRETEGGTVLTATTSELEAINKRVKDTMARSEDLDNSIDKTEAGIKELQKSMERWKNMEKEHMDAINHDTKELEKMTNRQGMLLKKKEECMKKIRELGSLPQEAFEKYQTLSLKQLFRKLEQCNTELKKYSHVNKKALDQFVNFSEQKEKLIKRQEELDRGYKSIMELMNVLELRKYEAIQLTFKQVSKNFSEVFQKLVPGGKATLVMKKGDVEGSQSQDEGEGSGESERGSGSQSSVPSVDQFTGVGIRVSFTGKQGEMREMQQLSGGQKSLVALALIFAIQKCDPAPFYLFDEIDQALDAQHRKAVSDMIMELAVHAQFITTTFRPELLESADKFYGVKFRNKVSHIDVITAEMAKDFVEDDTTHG
UniProt Q09472: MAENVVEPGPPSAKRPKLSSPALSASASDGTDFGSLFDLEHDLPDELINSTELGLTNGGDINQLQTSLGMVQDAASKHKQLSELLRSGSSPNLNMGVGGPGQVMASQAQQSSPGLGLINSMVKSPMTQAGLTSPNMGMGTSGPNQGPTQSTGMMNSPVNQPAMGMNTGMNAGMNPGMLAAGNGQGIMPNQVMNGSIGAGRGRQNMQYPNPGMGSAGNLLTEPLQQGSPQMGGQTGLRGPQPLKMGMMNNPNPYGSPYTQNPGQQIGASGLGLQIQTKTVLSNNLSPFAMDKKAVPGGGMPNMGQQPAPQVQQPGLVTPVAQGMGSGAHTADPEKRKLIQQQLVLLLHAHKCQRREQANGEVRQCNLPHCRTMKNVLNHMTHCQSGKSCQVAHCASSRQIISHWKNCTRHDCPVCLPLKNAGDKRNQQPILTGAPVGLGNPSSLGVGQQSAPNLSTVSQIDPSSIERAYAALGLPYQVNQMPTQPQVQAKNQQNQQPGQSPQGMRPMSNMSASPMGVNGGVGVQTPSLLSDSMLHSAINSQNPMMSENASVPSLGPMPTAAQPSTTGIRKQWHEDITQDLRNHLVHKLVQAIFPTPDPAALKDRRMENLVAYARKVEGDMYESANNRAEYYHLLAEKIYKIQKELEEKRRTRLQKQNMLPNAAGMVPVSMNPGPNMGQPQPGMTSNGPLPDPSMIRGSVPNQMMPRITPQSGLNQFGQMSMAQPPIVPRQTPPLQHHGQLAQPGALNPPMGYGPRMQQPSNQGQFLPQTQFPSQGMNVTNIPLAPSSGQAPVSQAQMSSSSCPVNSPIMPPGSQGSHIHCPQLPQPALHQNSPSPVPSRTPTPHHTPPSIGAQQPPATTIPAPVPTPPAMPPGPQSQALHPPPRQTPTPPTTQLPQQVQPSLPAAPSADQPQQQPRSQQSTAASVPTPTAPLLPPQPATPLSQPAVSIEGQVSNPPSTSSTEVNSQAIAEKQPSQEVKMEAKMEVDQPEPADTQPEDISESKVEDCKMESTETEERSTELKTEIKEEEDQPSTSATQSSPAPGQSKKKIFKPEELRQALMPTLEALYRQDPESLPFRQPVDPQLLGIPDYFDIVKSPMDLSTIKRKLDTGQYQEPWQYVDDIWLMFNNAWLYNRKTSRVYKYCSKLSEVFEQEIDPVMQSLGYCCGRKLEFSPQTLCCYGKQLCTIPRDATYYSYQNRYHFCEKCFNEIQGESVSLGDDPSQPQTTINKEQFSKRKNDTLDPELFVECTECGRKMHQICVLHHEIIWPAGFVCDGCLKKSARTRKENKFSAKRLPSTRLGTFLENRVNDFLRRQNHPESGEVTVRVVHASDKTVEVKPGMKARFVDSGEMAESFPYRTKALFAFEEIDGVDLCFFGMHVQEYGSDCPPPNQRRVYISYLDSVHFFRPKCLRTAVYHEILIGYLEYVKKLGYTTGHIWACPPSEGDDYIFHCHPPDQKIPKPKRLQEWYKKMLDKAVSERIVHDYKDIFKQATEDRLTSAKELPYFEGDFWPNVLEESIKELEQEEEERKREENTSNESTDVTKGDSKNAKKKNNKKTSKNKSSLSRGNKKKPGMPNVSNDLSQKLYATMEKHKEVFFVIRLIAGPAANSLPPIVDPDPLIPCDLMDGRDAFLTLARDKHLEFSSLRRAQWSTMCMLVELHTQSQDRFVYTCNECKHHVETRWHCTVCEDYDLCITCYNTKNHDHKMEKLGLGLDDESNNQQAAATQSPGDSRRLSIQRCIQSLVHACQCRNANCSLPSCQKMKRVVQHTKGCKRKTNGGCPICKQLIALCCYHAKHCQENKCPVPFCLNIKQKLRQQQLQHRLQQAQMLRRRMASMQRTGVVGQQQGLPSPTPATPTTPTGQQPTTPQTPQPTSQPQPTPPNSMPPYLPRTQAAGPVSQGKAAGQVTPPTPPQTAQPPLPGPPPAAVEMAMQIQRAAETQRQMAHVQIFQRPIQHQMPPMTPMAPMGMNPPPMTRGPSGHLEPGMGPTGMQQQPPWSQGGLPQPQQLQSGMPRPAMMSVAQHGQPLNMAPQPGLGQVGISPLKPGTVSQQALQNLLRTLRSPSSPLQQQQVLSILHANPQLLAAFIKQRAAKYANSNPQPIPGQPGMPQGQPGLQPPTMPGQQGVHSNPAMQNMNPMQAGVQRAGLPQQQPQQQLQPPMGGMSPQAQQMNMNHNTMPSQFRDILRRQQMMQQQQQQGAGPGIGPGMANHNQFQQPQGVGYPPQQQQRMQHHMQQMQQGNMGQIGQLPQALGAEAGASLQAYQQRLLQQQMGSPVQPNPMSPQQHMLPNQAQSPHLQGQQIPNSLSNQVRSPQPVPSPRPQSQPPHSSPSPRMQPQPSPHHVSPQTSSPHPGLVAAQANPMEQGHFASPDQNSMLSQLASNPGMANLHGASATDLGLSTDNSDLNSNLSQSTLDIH

These substances were tested against nucleoporin TPR (human (endogenous in U2OS)) (UniProt P12270) (assay: proximity ligation).

binding, binds:
Med1 (from UniProt Q15648 1-1581)
SMC3 (from UniProt Q9UQE7 1-1217)
p300 (from UniProt Q09472 1-2414)
